According to PubChem BioAssay AID1347076 (National Center for Advancing Translational Sciences (NCATS), 2019):
The whole screen tested about 400,000 compounds, of which about 13,000 (3.2%) were called active. This list was built around the results that the source calls inconclusive (neither active nor inactive); the mix of calls is not that of the screen. The call rests on the fitted dose curve; in most records, active means well fitted cell-killing curve with a large enough effect; inconclusive means small, poorly fitted or top-dose-only effect, or effect the other way; inactive means flat fitted curve, though single readings scatter. Potencies of inconclusive entries are doubtful fits and often do not repeat.

Experiment: qHTS assay for MDR1-selective chemotherapeutics: Primary screen using the drug-selected MDR subline cells KB-V1; further: nearly all actives have a fitted effect of over 60% in size
Conditions: KB-V1 MDR cells viability, CellTiter-Glo, 72 h; activity change, negative = cytotoxicity: at 46.1 µM (top of the series)
Method in brief: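 Compound-treated KB-V1 multidrug-resistant cells, 72 h, 37 degrees C; viability by CellTiter-Glo. Fitted qHTS curves give the values.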
On the % scale 0 is the no-effect control and ±100 the full control effect; potency means the concentration at half of the fitted maximal effect.

Row | SMILES | Potency | activity change, negative = cytotoxicity
1 | CC(C)NS(=O)(=O)c1ccc(OCC(=O)N2CCN(Cc3ccccc3)CC2)cc1 | inconclusive: 29.1 µM [cytotoxic, single point] | –
2 | Cc1ccc(N=C(N(C)C)P(=O)(N(C)C)N(C)C)cc1 | inconclusive: 3.66 µM [rising, partial curve, poor fit] | –
3 | O=c1[nH]c(=O)n(Cc2ccco2)c(O)c1C=NCc1cccs1 | inconclusive: 16.4 µM [cytotoxic, single point] | –
4 | COc1ccc(CCNC2CCCCCC2)cc1 | – | inactive: -17.5%
5 | COc1cccc(C2C([N+](=O)[O-])=C(N)Oc3c2c(=O)oc2ccccc32)c1 (stereo unspecified) | – | inactive: 0.955%
6 | COc1ccc(C2=CC(c3ccc4c(c3)OCO4)c3c(c4ccccc4oc3=O)O2)cc1OC (stereo unspecified) | active: 2.59 µM | –
7 | CN(Cc1c[nH]c2ccccc12)C1CCCCC1 | inconclusive: 18.4 µM [cytotoxic, single point] | –
8 | O=c1c2ccccc2nc(/C=C/c2ccccc2)n1-c1ccc(O)cc1 | inconclusive: 29.1 µM [cytotoxic, single point] | –
9 | CCN(CC)c1ccc(/C=C/[N+](=O)[O-])cc1 | inconclusive: 16.4 µM [cytotoxic, single point] | –
10 | CCC(C)(O)C(=O)OC1C(=O)OC2CC3C(C)=CC(=O)C(O)C3(C)C3C4(O)OCC23C1C(C)C4O (stereo unspecified) | active: 11.6 µM | –
11 | COc1ccc(C(=O)CN2CCOCC2)cc1F | – | inconclusive: 40.2%
12 | COc1ccc2c3c([nH]c2c1)C(C)=NCC3 | – | inactive: 1.75%
13 | CC12CCC3C(CCC4C/C(=N/O)CCC43C)C1CCC2O (stereo unspecified) | inconclusive: 32.6 µM [cytotoxic, partial curve, poor fit] | –
14 | CN(C)C(=O)Oc1ccc2c(c1)O/C(=C\c1cccc(Cl)c1)C2=O | – | inactive: 1.05%
15 | FC(F)(F)c1ccc(CNCCc2c[nH]c3ccccc23)cc1 | inconclusive: 25.9 µM [rising, single point] | –
16 | CC(CC(C#N)(c1ccccc1)c1ccccc1)N1CCCCC1 (stereo unspecified) | – | inactive: -5.22%
17 | CCN1/C(=C/C=C/C2=[N+](CC)c3ccccc3C2(C)C)C(C)(C)c2ccccc21 | active: 8.2 µM | –
18 | COc1ccc(NP(=O)(Nc2ccc(OC)cc2)Oc2ccccc2)cc1 | inconclusive: 16.4 µM [cytotoxic, single point] | –
19 | Cc1nc2ccccc2c(=O)n1-c1ccc(-c2ccccc2)cc1 | inconclusive: 23.1 µM [cytotoxic, single point] | –
20 | O=C(COc1ccccc1)N1CCN(CC(O)COc2ccccc2)CC1 (stereo unspecified) | inconclusive: 18.4 µM [cytotoxic, partial curve, poor fit] | –
21 | O=C(OCC(=O)c1ccc([N+](=O)[O-])cc1)/C(=C\c1ccc(Cl)cc1)NC(=O)c1ccccc1 | – | inactive: -11.4%

Quoted from above, nos. 2 to 3
Row | SMILES | Potency | activity change, negative = cytotoxicity
2 | Cc1ccc(N=C(N(C)C)P(=O)(N(C)C)N(C)C)cc1 | inconclusive: 3.66 µM [rising, partial curve, poor fit] | –
3 | O=c1[nH]c(=O)n(Cc2ccco2)c(O)c1C=NCc1cccs1 | inconclusive: 16.4 µM [cytotoxic, single point] | –
